For at least one entry, the source does not settle the construct or the ends of the probe. For some assays here: Negatives hold for the conditions tested. For some assays here: A weaker result is weaker than the reference pair of the same experiment. For some assays here: Protein sequences can lack the tags named with them.
Key:
SALL4 ZFC4 = target: T1, SALL4 ZFC4 (UniProt Q8BX22); assay: SPR; conditions: 5 uM ZnCl2 in buffer, second to QID-ZFC4, any KD only in figure
T1 sequence (looked up, limits assumed): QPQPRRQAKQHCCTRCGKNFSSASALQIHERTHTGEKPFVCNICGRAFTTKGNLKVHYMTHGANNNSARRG

SALL4 QID-ZFC4mut = SALL4 QID-ZFC4mut (UniProt Q8BX22); assay: SPR; conditions: 5 uM ZnCl2 in buffer, no binding (up to 25 uM)

“AGCAGGCCTAATATCGCAC (double strand) [SPR probe, single ATATTA motif]”: binds more weakly (SALL4 ZFC4); no binding (SALL4 QID-ZFC4mut).

— publication doi:10.1101/2025.10.27.684836 (bioRxiv, 2025)
